PubChem BioAssay AID1159601 | NIAID – 2016
Assay: 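Knock-down of 126 canonical TLR pathway genes, testing the TNF response to a TLR2 ligand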 (primary screen). Cells: human THP-1 reporter cells differentiated with PMA into macrophage-like cells. Reagents: single siRNA against human genes. Timing: ligand added 4 hours before read-out; cells assayed 48 to 72 hours after siRNA transfection. Conditions: Pam3CSK4 (TLR2 ligand) for 4 hours; dose not given. Measured: 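TNF promoter dual-luciferase ratio measured 4 h after Pam3CSK4, converted to robust z-scores against negative controls and averaged across replicates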. Reading the numbers: TNF reporter z-score: higher = stronger TNF promoter reporter activity. Rule for the call: 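The depositor grades each siRNA by the size of its mean z-score in either direction, with steps at 1, 1.5, 2 and 2.5; active calls sit near -1.5 or below, or near 1.5 or above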. Meaning of the calls: active = clear change (up or down); inactive = little change.
In all, the deposit lists 756 reagents; this is an unselected part. 143 of all reagents (19%) count as active. 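Calls include both lowered and raised reporter signal; each row is a single siRNA, not a gene summary; Pam3CSK4 dose not stated.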 The numbers tell different reagents against one gene apart. No sequences are given here. Not given: the amount of reagent.

| gene | reagent | TNF reporter z-score, replicate mean | Outcome |
| --- | --- | --- | --- |
| IRAK3 (interleukin 1 receptor associated kinase 3) | 1 | 0.311 | inactive |
| IRAK3 (interleukin 1 receptor associated kinase 3) | 2 | -0.614 | inactive |
| IRAK3 (interleukin 1 receptor associated kinase 3) | 3 | 0.093 | inactive |
| IRAK3 (interleukin 1 receptor associated kinase 3) | 4 | -0.191 | inactive |
| IRAK3 (interleukin 1 receptor associated kinase 3) | 5 | -0.732 | inactive |
| IRAK3 (interleukin 1 receptor associated kinase 3) | 6 | -0.614 | inactive |
| JUN (Jun proto-oncogene, AP-1 transcription factor subunit) | 1 | -0.906 | inactive |
| JUN (Jun proto-oncogene, AP-1 transcription factor subunit) | 2 | -3.07 | active |
| JUN (Jun proto-oncogene, AP-1 transcription factor subunit) | 3 | -0.663 | inactive |
| JUN (Jun proto-oncogene, AP-1 transcription factor subunit) | 4 | -0.495 | inactive |
| JUN (Jun proto-oncogene, AP-1 transcription factor subunit) | 5 | -1.79 | active |
| JUN (Jun proto-oncogene, AP-1 transcription factor subunit) | 6 | 0.294 | inactive |
| RIPK1 (receptor interacting serine/threonine kinase 1) | 1 | -1.1 | inactive |
| RIPK1 (receptor interacting serine/threonine kinase 1) | 2 | 0.141 | inactive |
| RIPK1 (receptor interacting serine/threonine kinase 1) | 3 | 1.09 | inactive |
| RIPK1 (receptor interacting serine/threonine kinase 1) | 4 | -0.94 | inactive |
| RIPK1 (receptor interacting serine/threonine kinase 1) | 5 | -1.04 | inactive |
| RIPK1 (receptor interacting serine/threonine kinase 1) | 6 | -0.467 | inactive |
| IFNB1 (interferon beta 1) | 1 | -1.21 | inactive |
| IFNB1 (interferon beta 1) | 2 | 0.015 | inactive |
| IFNB1 (interferon beta 1) | 3 | -1.51 | active |
| IFNB1 (interferon beta 1) | 4 | -0.744 | inactive |
| IFNB1 (interferon beta 1) | 5 | -1.69 | active |
| IFNB1 (interferon beta 1) | 6 | -1.99 | active |
| DUSP1 (dual specificity phosphatase 1) | 1 | -0.498 | inactive |
| DUSP1 (dual specificity phosphatase 1) | 2 | 1.23 | inactive |
| DUSP1 (dual specificity phosphatase 1) | 3 | -0.244 | inactive |
| DUSP1 (dual specificity phosphatase 1) | 4 | 1.19 | inactive |
| DUSP1 (dual specificity phosphatase 1) | 5 | -1.05 | inactive |
| DUSP1 (dual specificity phosphatase 1) | 6 | 0.441 | inactive |
| TLR7 (toll like receptor 7) | 1 | 0.0849 | inactive |
| TLR7 (toll like receptor 7) | 2 | 0.0139 | inactive |
| TLR7 (toll like receptor 7) | 3 | -0.515 | inactive |
| TLR7 (toll like receptor 7) | 4 | -0.422 | inactive |
| TLR7 (toll like receptor 7) | 5 | 0.124 | inactive |
| TLR7 (toll like receptor 7) | 6 | -0.0411 | inactive |
| TRAF6 (TNF receptor associated factor 6) | 1 | -4.62 | active |
| TRAF6 (TNF receptor associated factor 6) | 2 | -4.22 | active |
| TRAF6 (TNF receptor associated factor 6) | 3 | -4.52 | active |
| TRAF6 (TNF receptor associated factor 6) | 4 | -2.61 | active |
| TRAF6 (TNF receptor associated factor 6) | 5 | -3.01 | active |
| TRAF6 (TNF receptor associated factor 6) | 6 | -2.01 | active |
| ITGAX (integrin subunit alpha X) | 1 | -0.873 | inactive |
| ITGAX (integrin subunit alpha X) | 2 | -1.17 | inactive |
| ITGAX (integrin subunit alpha X) | 3 | 0.898 | inactive |
| ITGAX (integrin subunit alpha X) | 4 | -0.466 | inactive |
| ITGAX (integrin subunit alpha X) | 5 | -0.998 | inactive |
| ITGAX (integrin subunit alpha X) | 6 | -0.541 | inactive |
| IL33R (interleukin 33 receptor) | 1 | -0.564 | inactive |
| IL33R (interleukin 33 receptor) | 2 | -1.26 | inactive |
| IL33R (interleukin 33 receptor) | 3 | -0.321 | inactive |
| IL33R (interleukin 33 receptor) | 4 | -0.0201 | inactive |
| IL33R (interleukin 33 receptor) | 5 | -2.7 | active |
| IL33R (interleukin 33 receptor) | 6 | -0.0956 | inactive |
| PIK3CA | 1 | -0.0669 | inactive |
| PIK3CA | 2 | -0.982 | inactive |
| PIK3CA | 3 | 1.73 | active |
| PIK3CA | 4 | -0.409 | inactive |
| PIK3CA | 5 | -1.16 | inactive |
| PIK3CA | 6 | 1.28 | inactive |
| TLR9 (toll like receptor 9) | 1 | -2.01 | active |
| TLR9 (toll like receptor 9) | 2 | 0.727 | inactive |
| TLR9 (toll like receptor 9) | 3 | 2.15 | active |
| TLR9 (toll like receptor 9) | 4 | 1.19 | inactive |
| TLR9 (toll like receptor 9) | 5 | -0.425 | inactive |
| TLR9 (toll like receptor 9) | 6 | 1.5 | inactive |
| PIK3R1 (phosphoinositide-3-kinase regulatory subunit 1) | 1 | -0.0859 | inactive |
| PIK3R1 (phosphoinositide-3-kinase regulatory subunit 1) | 2 | -0.933 | inactive |
| PIK3R1 (phosphoinositide-3-kinase regulatory subunit 1) | 3 | 0.0297 | inactive |
| PIK3R1 (phosphoinositide-3-kinase regulatory subunit 1) | 4 | 0.307 | inactive |
| PIK3R1 (phosphoinositide-3-kinase regulatory subunit 1) | 5 | -2.21 | active |
| PIK3R1 (phosphoinositide-3-kinase regulatory subunit 1) | 6 | 0.0373 | inactive |
| ELF4 (E74 like ETS transcription factor 4) | 1 | -2.46 | active |
| ELF4 (E74 like ETS transcription factor 4) | 2 | -2.24 | active |
| ELF4 (E74 like ETS transcription factor 4) | 3 | -0.271 | inactive |
| ELF4 (E74 like ETS transcription factor 4) | 4 | -1.22 | inactive |
| ELF4 (E74 like ETS transcription factor 4) | 5 | -1.45 | inactive |
| ELF4 (E74 like ETS transcription factor 4) | 6 | -0.834 | inactive |
| TAB2 (TGF-beta activated kinase 1 (MAP3K7) binding protein 2) | 1 | 0.0323 | inactive |
| TAB2 (TGF-beta activated kinase 1 (MAP3K7) binding protein 2) | 2 | -1.97 | active |
| TAB2 (TGF-beta activated kinase 1 (MAP3K7) binding protein 2) | 3 | -2.38 | active |
| TAB2 (TGF-beta activated kinase 1 (MAP3K7) binding protein 2) | 4 | -2.07 | active |
| TAB2 (TGF-beta activated kinase 1 (MAP3K7) binding protein 2) | 5 | -5.38 | active |
| TAB2 (TGF-beta activated kinase 1 (MAP3K7) binding protein 2) | 6 | -2.08 | active |
| LBP (lipopolysaccharide binding protein) | 1 | -0.676 | inactive |
| LBP (lipopolysaccharide binding protein) | 2 | -0.321 | inactive |
| LBP (lipopolysaccharide binding protein) | 3 | 1.32 | inactive |
| LBP (lipopolysaccharide binding protein) | 4 | -1.63 | active |
| LBP (lipopolysaccharide binding protein) | 5 | 0.0446 | inactive |
| LBP (lipopolysaccharide binding protein) | 6 | 0.485 | inactive |
| MAP2K3 (mitogen-activated protein kinase kinase 3) | 1 | 0.0617 | inactive |
| MAP2K3 (mitogen-activated protein kinase kinase 3) | 2 | -0.954 | inactive |
| MAP2K3 (mitogen-activated protein kinase kinase 3) | 3 | -0.497 | inactive |
| MAP2K3 (mitogen-activated protein kinase kinase 3) | 4 | -2.37 | active |
| MAP2K3 (mitogen-activated protein kinase kinase 3) | 5 | 0.0677 | inactive |
| MAP2K3 (mitogen-activated protein kinase kinase 3) | 6 | -3.04 | active |
| UBE2V1 (ubiquitin conjugating enzyme E2 V1) | 1 | 0.803 | inactive |
| UBE2V1 (ubiquitin conjugating enzyme E2 V1) | 2 | -0.17 | inactive |
| UBE2V1 (ubiquitin conjugating enzyme E2 V1) | 3 | 0.476 | inactive |
| UBE2V1 (ubiquitin conjugating enzyme E2 V1) | 4 | -1.03 | inactive |
| UBE2V1 (ubiquitin conjugating enzyme E2 V1) | 5 | -0.309 | inactive |
| UBE2V1 (ubiquitin conjugating enzyme E2 V1) | 6 | 0.591 | inactive |
| IRAK4 (interleukin 1 receptor associated kinase 4) | 1 | -0.844 | inactive |
| IRAK4 (interleukin 1 receptor associated kinase 4) | 2 | 0.507 | inactive |
| IRAK4 (interleukin 1 receptor associated kinase 4) | 3 | 0.466 | inactive |
| IRAK4 (interleukin 1 receptor associated kinase 4) | 4 | -0.0201 | inactive |
| IRAK4 (interleukin 1 receptor associated kinase 4) | 5 | 0.316 | inactive |
| IRAK4 (interleukin 1 receptor associated kinase 4) | 6 | -0.527 | inactive |
| CREBBP (CREB binding lysine acetyltransferase) | 1 | 0.29 | inactive |
| CREBBP (CREB binding lysine acetyltransferase) | 2 | 0.877 | inactive |
| CREBBP (CREB binding lysine acetyltransferase) | 3 | 1.29 | inactive |
| CREBBP (CREB binding lysine acetyltransferase) | 4 | 0.761 | inactive |
| CREBBP (CREB binding lysine acetyltransferase) | 5 | 0.385 | inactive |
| CREBBP (CREB binding lysine acetyltransferase) | 6 | -0.221 | inactive |

19 successive reagents already listed:
| gene | reagent | TNF reporter z-score, replicate mean | Outcome |
| --- | --- | --- | --- |
| TLR9 (toll like receptor 9) | 5 | -0.425 | inactive |
| TLR9 (toll like receptor 9) | 6 | 1.5 | inactive |
| PIK3R1 (phosphoinositide-3-kinase regulatory subunit 1) | 1 | -0.0859 | inactive |
| PIK3R1 (phosphoinositide-3-kinase regulatory subunit 1) | 2 | -0.933 | inactive |
| PIK3R1 (phosphoinositide-3-kinase regulatory subunit 1) | 3 | 0.0297 | inactive |
| PIK3R1 (phosphoinositide-3-kinase regulatory subunit 1) | 4 | 0.307 | inactive |
| PIK3R1 (phosphoinositide-3-kinase regulatory subunit 1) | 5 | -2.21 | active |
| PIK3R1 (phosphoinositide-3-kinase regulatory subunit 1) | 6 | 0.0373 | inactive |
| ELF4 (E74 like ETS transcription factor 4) | 1 | -2.46 | active |
| ELF4 (E74 like ETS transcription factor 4) | 2 | -2.24 | active |
| ELF4 (E74 like ETS transcription factor 4) | 3 | -0.271 | inactive |
| ELF4 (E74 like ETS transcription factor 4) | 4 | -1.22 | inactive |
| ELF4 (E74 like ETS transcription factor 4) | 5 | -1.45 | inactive |
| ELF4 (E74 like ETS transcription factor 4) | 6 | -0.834 | inactive |
| TAB2 (TGF-beta activated kinase 1 (MAP3K7) binding protein 2) | 1 | 0.0323 | inactive |
| TAB2 (TGF-beta activated kinase 1 (MAP3K7) binding protein 2) | 2 | -1.97 | active |
| TAB2 (TGF-beta activated kinase 1 (MAP3K7) binding protein 2) | 3 | -2.38 | active |
| TAB2 (TGF-beta activated kinase 1 (MAP3K7) binding protein 2) | 4 | -2.07 | active |
| TAB2 (TGF-beta activated kinase 1 (MAP3K7) binding protein 2) | 5 | -5.38 | active |
